Data from patent US4093617A, “3,5,7-Trisubstituted pyrazolo[1,5-a]pyrimidines” (ICN Pharmaceuticals, Inc., priority 1976, dated 1978).

Test: Potentiation of the depressant effects of ethanol, loss of the righting reflex in the mouse
Details: in vivo, po
Protocol: For this test male Swiss-Webster mice weighing 18 to 20 grams were food deprived 18 hours prior to the experiment. […] Drugs were given orally in 20 ml/kg of 1% CMC. Ethanol (5 gm/kg p.o.) was given 30 minutes after drug injection. Immediately after treatment animals were placed in individual clear plastic containers.
The righting reflex was recorded as being present when the animal would voluntarily roll to its side when placed on its back. Animals were tested for righting reflex every 15 minutes.

In the case of `CN1C(=O)CN=C(c2ccccc2)c2cc(Cl)ccc21` [Diazepam, diazepam, reference compound], the NOAEL is reported as 1 mg/kg.
